Source: the supplement of paper PMC7646827
Where a name gives a salt, the structure may show the parent alone. Single values are uncertain, as repeats are few or missing.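 All cells are established human bladder cancer lines, one derived from a patient-derived xenograft. A luminescent ATP assay measured viability as percent inhibition relative to vehicle across seven dilutions. The paper rates scores above 59 very active, 30–59 active, 21–29 semi-active, 9–20 low active, below 9 inactive.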

Experiments:
Experiment in all cases: drug sensitivity score DSS3 (score 0-100); higher = more sensitive; extreme values may be limits of the assay
Conditions in all cases: culture: 3D, ultra-low attachment; treatment time: 5 days
5637 = tested on: 5637
BC8149 = tested on: BC8149
J82 = tested on: J82
SCaBER = tested on: SCaBER
SW780 = tested on: SW780
T-24 = tested on: T-24
TCCSUP = tested on: TCCSUP
UM-UC-12 = tested on: UM-UC-12
UM-UC-14 = tested on: UM-UC-14
UM-UC-15 = tested on: UM-UC-15
UM-UC-17 = tested on: UM-UC-17
UM-UC-18 = tested on: UM-UC-18
UM-UC-1 = tested on: UM-UC-1
UM-UC-3 = tested on: UM-UC-3
UM-UC-5 = tested on: UM-UC-5
UM-UC-6 = tested on: UM-UC-6
UM-UC-9 = tested on: UM-UC-9

Compound	drug sensitivity score DSS3 5637	drug sensitivity score DSS3 (BC8149)	drug sensitivity score DSS3 (J82)	drug sensitivity score DSS3 (SCaBER)	drug sensitivity score DSS3 (SW780)	drug sensitivity score DSS3 (T-24)	drug sensitivity score DSS3 (TCCSUP)	drug sensitivity score DSS3 (UM-UC-12)	drug sensitivity score DSS3 (UM-UC-14)	drug sensitivity score DSS3 (UM-UC-15)	drug sensitivity score DSS3 (UM-UC-17)	drug sensitivity score DSS3 (UM-UC-18)	drug sensitivity score DSS3 (UM-UC-1)	drug sensitivity score DSS3 (UM-UC-3)	drug sensitivity score DSS3 (UM-UC-5)	drug sensitivity score DSS3 (UM-UC-6)	drug sensitivity score DSS3 (UM-UC-9)
CN(C)C1CCN(C(=O)c2ccc(NC(=O)Nc3ccc(-c4nc(N5CCOCC5)nc(N5CCOCC5)n4)cc3)cc2)CC1 [Gedatolisib] (max dose 2000 nM)	42.6	44.4	0.68	27.3	53.8	1.99	57.6	4.84	3.4	4.2	29.6	21.6	56.2	20.9	44.4	12.4	34.9
Cc1cc2c(C(C)C)c(O)c(O)c(C=O)c2c(O)c1-c1c(C)cc2c(C(C)C)c(O)c(O)c(C=O)c2c1O [Gossypol] (max dose 10000 nM)	6.65	1.42	0	5.28	0	0	11	0	0.298	0	2.82	1.67	1.28	0.0228	0	0	0
C=CC(=O)Nc1cc(N2CCN(CC)CC2)ccc1Nc1cc(N(C)C(=O)Nc2c(Cl)c(OC)cc(OC)c2Cl)ncn1 [H3B-6527] (max dose 10000 nM)	0	0	0	0	0	0	0	0	0	2.49	0	0	0	0	0	0	0
Cc1cc(C)c(S(=O)(=O)n2cc(C)cc2C)c(C)c1 [HJC0350] (max dose 10000 nM)	0	7.16	0	0	0	0	0	0	0	0	0	0.0695	0	0	0	0	18.4
CC1(C)C=C(CN2C/C(=C\c3ccc(F)cc3)C(=O)/C(=C/c3ccc(F)cc3)C2)C(C)(C)N1O [HO-3867] (max dose 10000 nM)	0	0	0	0	0	0.0712	0	0	0	0	0	0	0	0	0	0.256	0
C[C@]12CCC(=O)C=C1CC[C@@H]1[C@@H]2[C@@H](O)C[C@@]2(C)[C@H]1CC[C@]2(O)C(=O)CO [Hydrocortisone] (max dose 10000 nM)	1.73	0	0	0	0	0	0	0.489	0	0	0	0.159	0	4.7	0	0	0
CCN(CCO)CCCC(C)Nc1ccnc2cc(Cl)ccc12 (stereo unspecified) [Hydroxychloroquine Sulfate] (max dose 10000 nM)	0	5.21	0	0	0	0	0	0	0	0	0	0	0	0	0	0	0
CCn1cc(-c2cccc(C(F)(F)F)c2)c2sc(C(=N)NC3CCS(=O)(=O)CC3)cc2c1=O [I-BRD9] (max dose 10000 nM)	4.94	0	0	0.0344	1.14	0	10.8	3.98	4.89	2.66	0.837	5.95	1.39	0.818	1.56	4.6	3.09
O=C(O)CNC(=O)c1c(O)c2ccccc2n(Cc2ccccc2)c1=O [IOX2] (max dose 10000 nM)	0	0	0	0	0	0.153	0	0	0	0	0	0	0	0	0	0	0
O=C(COc1ccc(Cl)cc1)NC1CCC(NC(=O)COc2ccc(Cl)cc2)CC1 (stereo not drawn) [ISRIB (trans-isomer)] (max dose 10000 nM)	0	0	0	0	0	0	0	0	0	0	0	0.374	0	0	0	0	0
COc1ccc(-c2oc3c(CC=C(C)C)c(O[C@@H]4O[C@H](CO)[C@@H](O)[C@H](O)[C@H]4O)cc(O)c3c(=O)c2O[C@@H]2O[C@@H](C)[C@H](O)[C@@H](O)[C@H]2O)cc1 [Icariin] (max dose 10000 nM)	0	0	0	0	0	0	0	0	0	2.73e-06	0	0	0	0	0	0	0
CC(C)NC[C@@H](C(=O)N1CCN(c2ncnc3c2[C@H](C)C[C@H]3O)CC1)c1ccc(Cl)cc1 [Ipatasertib (GDC-0068)] (max dose 10000 nM)	1.42	0	0	11.1	0	0	6.12	0.805	9.27	2.95	0	8.42	7.68	1.32	10.2	11.7	8.46
CCc1c2c(nc3ccc(OC(=O)N4CCC(N5CCCCC5)CC4)cc13)-c1cc3c(c(=O)n1C2)COC(=O)[C@]3(O)CC [Irinotecan HCl Trihydrate] (max dose 10000 nM)	7.24	10.7	0	0.202	0	0.429	9.22	0	3.05	0	0.536	7.91	2.4	1.2	0.167	0.972	0.0938
N#Cc1c(NC(=O)c2cccc3ccccc23)sc2c1CCCC2 [JNK Inhibitor IX] (max dose 10000 nM)	17.6	12.6	0	0.267	1.38	3.24	20.1	14.6	13.8	0.519	22.5	0.0484	0.485	10.2	2.01	6.6	0
O=C(O)CCN1C(=O)/C(=C/c2ccc(-c3ccc([N+](=O)[O-])cc3)o2)SC1=S [KYA1797K] (max dose 10000 nM)	0	0	0	0	0	0	0	0	0	1.17	0	0.404	0	0	0	0	0
Cc1c(C(=O)Nc2ccc(N3C[C@@H](C)O[C@@H](C)C3)nc2)cccc1-c1ccc(OC(F)(F)F)cc1 [LDE225 (NVP-LDE225,Erismodegib)] (max dose 10000 nM)	0	0	0	0.101	0	0	0	0	0	0	0	0	0	0	0	0	0
C/C(O)=C(\C#N)C(=O)Nc1cc(Br)ccc1Br [LFM-A13] (max dose 10000 nM)	0	2.66	0	0.572	0	0	0.294	0	0	0.314	0	0	0	0	0	0	0
Cc1cc(-c2ncc(CC(=O)Nc3ccc(-c4cnccn4)cn3)cc2C)ccn1 [LGK-974] (max dose 10000 nM)	0	0	0	0	0	0	2.63	0	4.64	0	0	0	1.29	0	0	2.35	0
Cc1cn(CCN2CCN(c3ccccc3-c3cc(C#N)cc(C(=O)NCCCN4CCCC4)c3)CC2)c2ccccc12 [LLY-507] (max dose 10000 nM)	0.183	3.18	0	0.311	0	0	0.105	0	0	4.95	0	0.0889	0.119	0.621	0.135	0.139	0.0962
Cc1ccc(NC(=O)c2ccnc(C(F)(F)F)c2)cc1-c1cc(OCCO)nc(N2CCOCC2)c1 [LXH254] (max dose 10000 nM)	2.39	0	0	6.26	0	0	1.16	0	1.17	3.28	0.0714	0.105	1.45	4.96	10.5	0.105	0.878
O=C(Nc1cnn2ccc(N3CCC[C@@H]3c3cc(F)ccc3F)nc12)N1CC[C@H](O)C1 [Larotrectinib (LOXO-101) sulfate] (max dose 10000 nM)	0	0	0	0	0	0	0	0	0	1.4	0	0	0	0	0	0	0
COc1cc2nccc(Oc3ccc(NC(=O)NC4CC4)c(Cl)c3)c2cc1C(N)=O [Lenvatinib (E7080)] (max dose 10000 nM)	2.45	4.22	0	0	1.91	0	17	0.407	7.33	0	2.68	0	3.42	0	0	0.8	0
N#Cc1ccc(C(c2ccc(C#N)cc2)n2cncn2)cc1 [Letrozole] (max dose 10000 nM)	12.8	8.85	0	2.46	0	1.73	11.3	4.26	1.25	0	0.0345	3.67	1.34	15.2	5.87	0.197	2.69

Part of the list above, reduced to drug sensitivity score DSS3 (UM-UC-1), drug sensitivity score DSS3 (UM-UC-14) and drug sensitivity score DSS3 (UM-UC-17):
Compound | drug sensitivity score DSS3 (UM-UC-1) | drug sensitivity score DSS3 (UM-UC-14) | drug sensitivity score DSS3 (UM-UC-17)
Cc1cc2c(C(C)C)c(O)c(O)c(C=O)c2c(O)c1-c1c(C)cc2c(C(C)C)c(O)c(O)c(C=O)c2c1O [Gossypol] (max dose 10000 nM) | 1.28 | 0.298 | 2.82
C=CC(=O)Nc1cc(N2CCN(CC)CC2)ccc1Nc1cc(N(C)C(=O)Nc2c(Cl)c(OC)cc(OC)c2Cl)ncn1 [H3B-6527] (max dose 10000 nM) | 0 | 0 | 0
